{"sequences": {"note": "By UniProt entry, the sequences of proteins in these tests, tags left out.", "UniProt Q14694": "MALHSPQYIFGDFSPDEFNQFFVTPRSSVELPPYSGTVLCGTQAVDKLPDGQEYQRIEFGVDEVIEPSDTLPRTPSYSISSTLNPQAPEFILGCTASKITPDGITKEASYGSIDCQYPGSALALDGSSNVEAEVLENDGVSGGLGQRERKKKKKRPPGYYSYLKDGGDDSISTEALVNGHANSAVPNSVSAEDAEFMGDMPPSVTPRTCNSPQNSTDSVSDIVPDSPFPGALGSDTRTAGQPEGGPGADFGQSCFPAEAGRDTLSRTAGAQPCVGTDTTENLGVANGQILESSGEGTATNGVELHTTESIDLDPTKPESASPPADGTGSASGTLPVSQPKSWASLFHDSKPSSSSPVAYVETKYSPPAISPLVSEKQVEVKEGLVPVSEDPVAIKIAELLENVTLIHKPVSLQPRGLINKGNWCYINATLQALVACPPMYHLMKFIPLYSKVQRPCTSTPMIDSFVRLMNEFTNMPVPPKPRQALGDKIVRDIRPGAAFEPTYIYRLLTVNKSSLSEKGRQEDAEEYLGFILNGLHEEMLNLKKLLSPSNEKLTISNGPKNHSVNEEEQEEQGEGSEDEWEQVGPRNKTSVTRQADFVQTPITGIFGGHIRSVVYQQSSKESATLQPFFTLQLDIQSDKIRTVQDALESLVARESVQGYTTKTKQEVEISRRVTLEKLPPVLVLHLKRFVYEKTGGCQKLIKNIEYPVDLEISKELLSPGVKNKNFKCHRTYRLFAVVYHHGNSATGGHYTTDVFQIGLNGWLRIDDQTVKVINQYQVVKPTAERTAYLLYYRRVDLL"}, "source": "paper PMC10111703", "binders": {"B1": {"name": "DDX21 (protein, UniProt Q9NR30-1 1-783)", "chain": "MPGKLRSDAGLESDTAMKKGETLRKQTEEKEKKEKPKSDKTEEIAEEEETVFPKAKQVKKKAEPSEVDMNSPKSKKAKKKEEPSQNDISPKTKSLRKKKEPIEKKVVSSKTKKVTKNEEPSEEEIDAPKPKKMKKEKEMNGETREKSPKLKNGFPHPEPDCNPSEAASEESNSEIEQEIPVEQKEGAFSNFPISEETIKLLKGRGVTFLFPIQAKTFHHVYSGKDLIAQARTGTGKTFSFAIPLIEKLHGELQDRKRGRAPQVLVLAPTRELANQVSKDFSDITKKLSVACFYGGTPYGGQFERMRNGIDILVGTPGRIKDHIQNGKLDLTKLKHVVLDEVDQMLDMGFADQVEEILSVAYKKDSEDNPQTLLFSATCPHWVFNVAKKYMKSTYEQVDLIGKKTQKTAITVEHLAIKCHWTQRAAVIGDVIRVYSGHQGRTIIFCETKKEAQELSQNSAIKQDAQSLHGDIPQKQREITLKGFRNGSFGVLVATNVAARGLDIPEVDLVIQSSPPKDVESYIHRSGRTGRAGRTGVCICFYQHKEEYQLVQVEQKAGIKFKRIGVPSATEIIKASSKDAIRLLDSVPPTAISHFKQSAEKLIEEKGAVEALAAALAHISGATSVDQRSLINSNVGFVTMILQCSIEMPNISYAWKELKEQLGEEIDSKVKGMVFLKGKLGVCFDVPTASVTEIQEKWHDSRRWQLSVATEQPELEGPREGYGGFRGQREGSRGFRGQRDGNRRFRGQREGSRGPRGQRSGGGNKSNRSQNKGQKRSFSKAFGQ"}}, "biological_target": "USP10 (human (endogenous in HGC-27 and MGC80-3)) (UniProt Q14694)", "assay": "co-IP; endogenous proteins in HGC-27 or MGC80-3 cells; precipitation with DDX21 and, in turn, with USP10, read by Western blot; also done in stably LINC00240-KD (less USP10 with DDX21) and LINC00240-OE (more USP10 with DDX21) cells", "note": "These are yes or no findings as the source states them, for the method shown. In cells and extracts the contact can be indirect. Some results given as binding are weak or reduced against the parent protein; the word gives no strength.", "data": [{"binder": "B1", "values": [{"measurement": "binding", "result": "binds"}]}]}
